Test results taken from PubChem BioAssay AID2685 (National Center for Advancing Translational Sciences (NCATS), 2010).
This is one part of the list. Further columns of the screen follow, without active or inactive calls. Most of these compounds were active or inconclusive in the main read-out, so they are no random draw. Words in brackets tell the shape of the fitted curve; partial curves, single points and poor fits give uncertain potencies.

Assay: qHTS Assay for Lipid Storage Modulators in Drosophila S3 Cells;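 for cell number change: cells counted by Cell Tracker Red CMTPX staining in the red channel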
Conditions: BODIPY lipid droplet fluorescence, 18-24 h; for cell number change: measured here: cell count max response, cells fed with added oleic acid
Outline: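 Laser-scanning cytometry quantifies lipid droplet accumulation (500–530 nm total intensity; droplet/cell object ratio) in oleic acid-fed (400 uM added) Drosophila S3 cells treated with a concentration series. 20 uM Triacsin C defined 100% inhibition.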

[1] = measured here: cell number channel AC50, cells fed with added oleic acid
[2] = measured here: lipid fluorescence (Fed channel) AC50, cells fed with added oleic acid

Structure (SMILES) | cell number change [%] | AC50 [1] | AC50 [2]
CCN(CC)S(=O)(=O)c1ccc(N2CCCC2)c(NS(=O)(=O)c2ccccc2)c1 | -41.9 | 0.92 µM [falling, full curve] | 18.4 µM [falling, partial curve]
CCCNC(=O)CSc1nc(COc2ccccc2)nc2ccccc12 | 15.4 |  | 
O=C(Nc1ccncc1)c1cccc(S(=O)(=O)N2CCN(c3ccc(F)cc3)CC2)c1 | -25.5 |  | 
COc1ccc(NC(=O)CN(C)CC(=O)NCC(=O)Nc2ccc(F)cc2)cc1 | -15.5 |  | 4.11 µM [rising, partial curve, poor fit]
Cc1ccc(S(=O)(=O)N(C)C)cc1NC(=S)NNC(=O)C(N)=O | 26 |  | 
O=C(COC(=O)CCc1ccc(S(=O)(=O)N2CCOCC2)cc1)Nc1ncc(C(F)(F)F)cc1Cl | 8.12 |  | 16.4 µM [falling, partial curve]
CCCCC(=O)NC(NC(=O)CCCC)c1ccc(OCC(C)C)c(OC)c1 | 1.53 |  | 0.0731 µM [rising, full curve, poor fit]
Nc1c(Cl)cc2c(c1Oc1ccccc1)C(=O)c1ccccc1C2=O |  | 0.461 µM [rising, full curve] | 0.291 µM [rising, partial curve, poor fit]
N#CC1=C(S)N(c2ccccc2)C(c2ccc(-c3ccccc3Cl)o2)NC1=O (stereo not drawn) | -41.7 | 5.8 µM [falling, full curve] | 
COc1ccccc1NC(=O)Nc1ccc2c(c1)nnn2C |  | 0.0731 µM [rising, full curve, poor fit] | 0.411 µM [rising, full curve]
CC1CCN(C(=O)CSc2nncn2C)CC1 | -13 |  | 0.13 µM [rising, full curve, poor fit]
O=C1NC(c2ccc(Br)cc2)Nc2ccccc21 (stereo not drawn) | 10.6 |  | 
CCOc1ccc(N(CC(=O)Nc2ccc(C)c(C)c2)S(=O)(=O)c2c(C)noc2C)cc1 | -8.62 |  | 29.1 µM [falling, single point]
CC1(C)N([O-])c2cc([N+](=O)[O-])ccc2[N+]1=O | -33 | 7.31 µM [falling, partial curve] | 11.6 µM [falling, partial curve]
CSc1ccc(NC(=O)Nc2ccc(C(=O)NCC(=O)O)cc2)cc1 | -14.9 |  | 6.51 µM [falling, single point]
O=C1NC2(CCCC2)N=C1c1ccc(F)cc1 | -59.5 | 29.1 µM [falling, partial curve] | 
CCN(CC)C(=O)COc1ccc2oc(C)c(C(=O)OC)c2c1 | 2.33 |  | 0.651 µM [rising, full curve, poor fit]
CCOC(=O)C1CCN(S(=O)(=O)c2cc3c(cc2C)NC(=O)CO3)CC1 | -2.59 |  | 0.00517 µM [falling, full curve, poor fit]
CCCCN1C(=O)c2ccccc2C1C(=O)NC1CCCC1 (stereo not drawn) | -11.5 |  | 0.058 µM [falling, full curve]

Structure (SMILES) | cell number change [%] | AC50 [1] | AC50 [2]
Cc1cc(NC(=O)CSc2ccc3nnc(CCNS(=O)(=O)c4ccccc4)n3n2)no1 | 4.56 | 4.11 µM [falling, single point] | 4.11 µM [falling, single point]
Cc1cccc(NC(=O)c2ccc(OC3CSC3)cc2)c1 | -0.157 |  | 
Cc1cc(Cl)ccc1NC(=O)CSc1nnc(Cc2cccs2)n1Cc1ccco1 |  | 0.82 µM [rising, partial curve] | 0.58 µM [rising, partial curve]
CCNC(=O)/C(=C/c1cccc([N+](=O)[O-])c1)NC(=O)c1ccc(C)cc1 | 6.81 |  | 0.146 µM [rising, single point]
COc1ccc(CNC(=O)CS(=O)(=O)Cc2nc(-c3ccc(OC)cc3)oc2C)cc1 | 53.3 | 32.6 µM [rising, single point] | 
CC(C)CNC(=O)C1CCN(c2ccc(S(=O)(=O)N3CCOCC3)cc2)CC1 | -3.4 |  | 0.0651 µM [falling, full curve, poor fit]
O=C(Nc1ccc(S(=O)(=O)N2CCCCC2)cc1)c1cccnc1Cl | 105 |  | 
CC1(C)Cc2nc3sc(C(N)=O)c(N)c3cc2CO1 | 18.9 | 0.00461 µM [rising, full curve, poor fit] | 
O=C(O)c1ccccc1S(=O)(=O)NCC(O)COC1CCCCC1 (stereo not drawn) | 7.64 |  | 5.17 µM [falling, partial curve, poor fit]
CC(=O)Nc1ccc(NC(=O)c2ccc3c(c2)C(=O)N(c2ccccc2C)C3=O)cc1 | 42.3 | 18.4 µM [rising, single point] | 8.2 µM [rising, partial curve]
CCOc1cc(N2CCOCC2)c(OCC)cc1NC(=O)c1ccc2ccccc2n1 | -116 | 29.1 µM [falling, single point] | 0.116 µM [falling, full curve, poor fit]
Cc1nnc2n(-c3ccc(Cl)cc3)c(=O)c3c4c(sc3n12)CN(C)CC4 | -9.39 | 3.66 µM [rising, partial curve] | 0.517 µM [falling, full curve]
CCCS(=O)(=O)c1nc(C)cc(C)c1S(C)(=O)=O | -49.5 | 29.1 µM [falling, single point] | 29.1 µM [falling, single point]
CC(CC(=O)N1CCN(c2ccccc2)CC1)c1ccccc1 (stereo not drawn) |  |  | 16.4 µM [falling, single point]
Cc1cc(C)nc(NC(=NCCc2c[nH]c3ccccc23)NC(=O)Nc2ccccc2)n1 | -36.5 | 8.2 µM [falling, partial curve, poor fit] | 8.2 µM [falling, partial curve]
O=S(=O)(NCC(c1ccco1)N1CCc2ccccc21)c1ccccc1 (stereo not drawn) | -2.05 |  | 32.6 µM [falling, single point]
COc1ccc(Cl)cc1N(CC(=O)N1CCCC1)S(=O)(=O)c1ccc(C)cc1 | -7.89 |  | 
CC/C(=N\NS(C)(=O)=O)c1ccccc1 | 4.68 |  | 

Single records, from the list above.
Cc1cc(Cl)ccc1NC(=O)CSc1nnc(Cc2cccs2)n1Cc1ccco1 reads AC50 [1]: 0.82 µM [rising, partial curve]; AC50 [2]: 0.58 µM [rising, partial curve]
CC(CC(=O)N1CCN(c2ccccc2)CC1)c1ccccc1 (stereo not drawn) reads AC50 [2]: 16.4 µM [falling, single point]
